No constants are given. Whether binding was seen depends on the method and setting. In cells and extracts the contact can be indirect. Here binding means that the protein was enriched with, or labelled near, the bait; the list need not be complete.

This assay concerns the target MICU1-HA. The assay can be described thus: affinity purification with mass spectrometry; IP of MICU1-HA from Mcu-/- HEK 293T cells expressing MICU1-HA alone or with MICU2-Myc and/or MICU3-FLAG; LC/MS; hits cross-referenced with a published MICU1-BioID2 dataset.

B1: Succinate dehydrogenase iron-sulfur subunit B (SDHB) (protein, UniProt P21912 29-280)
chain: AQTAAATAPRIKKFAIYRWDPDKAGDKPHMQTYEVDLNKCGPMVLDALIKIKNEVDSTLTFRRSCREGICGSCAMNINGGNTLACTRRIDTNLNKVSKIYPLPHMYVIKDLVPDLSNFYAQYKSIEPYLKKKDESQEGKQQYLQSIEEREKLDGLYECILCACCSTSCPSYWWNGDKYLGPAVLMQAYRWMIDSRDDFTEERLAKLQDPFSLYRCHTIMNCTRTCPKGLNPGKAIAEIKKMMATYKEKKASV
For the molecule B1, the binding result was “binds”.

B2: Glycerol-3-phosphate dehydrogenase (GPD2) (protein, UniProt P43304 43-727)
chain: ADCISEPVNREPPSREAQLLTLQNTSEFDILVIGGGATGSGCALDAVTRGLKTALVERDDFSSGTSSRSTKLIHGGVRYLQKAIMKLDIEQYRMVKEALHERANLLEIAPHLSAPLPIMLPVYKWWQLPYYWVGIKLYDLVAGSNCLKSSYVLSKSRALEHFPMLQKDKLVGAIVYYDGQHNDARMNLAIALTAARYGAATANYMEVVSLLKKTDPQTGKVRVSGARCKDVLTGQEFDVRAKCVINATGPFTDSVRKMDDKDAAAICQPSAGVHIVMPGYYSPESMGLLDPATSDGRVIFFLPWQKMTIAGTTDTPTDVTHHPIPSEEDINFILNEVRNYLSCDVEVRRGDVLAAWSGIRPLVTDPKSADTQSISRNHVVDISESGLITIAGGKWTTYRSMAEDTINAAVKTHNLKAGPSRTVGLFLQGGKDWSPTLYIRLVQDYGLESEVAQHLAATYGDKAFEVAKMASVTGKRWPIVGVRLVSEFPYIEAEVKYGIKEYACTAVDMISRRTRLAFLNVQAAEEALPRIVELMGRELNWDDYKKQEQLETARKFLYYEMGYKSRSEQLTDRSEISLLPSDIDRYKKRFHKFDADQKGFITIVDVQRVLESINVQMDENTLHEILNEVDLNKNGQVELNEFLQLMSAIQKGRVSGSRLAILMKTAEENLDRRVPIPVDRSCGGL
For the molecule B2, the binding entry is listed as “binds”.

The values are drawn from paper PMC12270237.
